In paper doi:10.1101/418368:
These are yes or no findings as the source states them, for the method shown. Binding seen in cells or lysates may run through a third protein. Some results given as binding are weak or reduced against the parent protein; the word gives no strength.

Target: T1, Mcm3 (Xenopus laevis (endogenous in egg extract)) (UniProt P49739)
T1 sequence: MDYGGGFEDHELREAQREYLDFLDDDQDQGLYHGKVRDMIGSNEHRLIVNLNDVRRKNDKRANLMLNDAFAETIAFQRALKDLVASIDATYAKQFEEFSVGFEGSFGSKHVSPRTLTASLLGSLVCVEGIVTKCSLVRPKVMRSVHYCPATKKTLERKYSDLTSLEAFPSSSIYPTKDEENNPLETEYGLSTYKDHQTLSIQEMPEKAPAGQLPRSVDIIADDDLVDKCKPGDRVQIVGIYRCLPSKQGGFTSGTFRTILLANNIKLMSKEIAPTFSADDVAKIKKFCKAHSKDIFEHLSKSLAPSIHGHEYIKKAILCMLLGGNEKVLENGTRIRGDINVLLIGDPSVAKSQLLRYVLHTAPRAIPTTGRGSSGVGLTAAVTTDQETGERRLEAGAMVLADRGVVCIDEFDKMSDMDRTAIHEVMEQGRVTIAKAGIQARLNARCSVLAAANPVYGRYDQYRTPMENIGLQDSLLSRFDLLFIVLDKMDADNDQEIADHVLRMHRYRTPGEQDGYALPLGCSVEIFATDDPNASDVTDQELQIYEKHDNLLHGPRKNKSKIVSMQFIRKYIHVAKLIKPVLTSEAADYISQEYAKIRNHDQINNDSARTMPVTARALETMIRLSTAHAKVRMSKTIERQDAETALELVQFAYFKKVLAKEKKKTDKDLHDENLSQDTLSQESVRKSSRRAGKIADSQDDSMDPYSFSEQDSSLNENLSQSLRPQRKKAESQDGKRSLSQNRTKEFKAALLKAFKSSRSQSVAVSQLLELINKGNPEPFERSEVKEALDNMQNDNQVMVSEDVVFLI
Test: co-IP

binding: binds
B1: TRAIP ubiquitin ligase (enzyme, UniProt Q6NRV0 1-464)
chain: MPIRAYCTICSDFFDNARDVAAITCGHTFHQECLLQWFHSAPHRTCPQCRIQVSSRQIINKLFFDIGGEEETVLDAESLKNEVDRIKASLLVKEKEKRECQGLVDSLREMLDVRNVTIQSQQKELGDMEMLCSTLKKQIKFLDKQQSETKAAKDEARKLRNKLKTMESIEVLLQSQRSEVEEMIRDMGSGQAAVEQLAIYCVSLKKEYENLKEVRKSSAEMTEKLRKELFSSNHKAQKAELELTKVREELSASQKELHSADKEIMSLKKKVEFLQKTLTTPTASNEAISRLIFESPAPIGLERPKLRPPMMGNDINLDVTFDIDTPEHNTQKSVVAPFKKMKFDNKEHPLSSPTKNPLQESKGLMSWAGGRTGADEDDDLTLPSFIKNSLLHKKPVGSLLGLRQNTGAVRTGFDGLGGRTKFIQPSNLTEIRPLHQKMKRKKVSRPTACTSSLANQPRLEDFLK
